These results are taken from publication PMC5979003.

Protein sequences, listed by entry. Tags and fused reporters are not part of them.
UniProt P09874: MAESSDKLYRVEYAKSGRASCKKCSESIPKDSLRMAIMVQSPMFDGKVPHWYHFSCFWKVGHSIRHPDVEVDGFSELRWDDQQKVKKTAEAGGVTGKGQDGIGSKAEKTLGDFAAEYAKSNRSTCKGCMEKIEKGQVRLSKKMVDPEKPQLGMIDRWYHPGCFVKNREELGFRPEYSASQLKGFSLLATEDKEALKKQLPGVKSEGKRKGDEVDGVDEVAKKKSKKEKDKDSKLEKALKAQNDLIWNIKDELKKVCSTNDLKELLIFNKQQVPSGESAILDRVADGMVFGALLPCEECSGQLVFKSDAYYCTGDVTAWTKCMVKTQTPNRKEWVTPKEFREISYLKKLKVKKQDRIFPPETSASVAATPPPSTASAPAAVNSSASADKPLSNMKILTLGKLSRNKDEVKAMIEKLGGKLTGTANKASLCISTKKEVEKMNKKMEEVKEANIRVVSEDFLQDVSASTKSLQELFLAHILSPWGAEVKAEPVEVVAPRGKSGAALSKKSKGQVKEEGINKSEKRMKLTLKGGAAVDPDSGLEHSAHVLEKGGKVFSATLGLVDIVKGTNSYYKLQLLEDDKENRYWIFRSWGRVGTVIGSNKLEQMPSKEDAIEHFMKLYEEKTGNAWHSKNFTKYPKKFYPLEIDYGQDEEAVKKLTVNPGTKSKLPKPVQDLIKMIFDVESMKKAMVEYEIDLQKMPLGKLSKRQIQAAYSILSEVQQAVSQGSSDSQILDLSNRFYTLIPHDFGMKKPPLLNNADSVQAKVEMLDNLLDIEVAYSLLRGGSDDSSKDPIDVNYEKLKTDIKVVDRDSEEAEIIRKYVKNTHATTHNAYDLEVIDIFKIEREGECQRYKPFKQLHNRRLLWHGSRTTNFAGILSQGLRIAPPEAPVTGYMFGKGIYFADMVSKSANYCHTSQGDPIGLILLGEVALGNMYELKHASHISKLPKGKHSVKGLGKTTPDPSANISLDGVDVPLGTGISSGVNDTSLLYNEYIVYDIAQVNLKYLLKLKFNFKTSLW
UniProt P54098: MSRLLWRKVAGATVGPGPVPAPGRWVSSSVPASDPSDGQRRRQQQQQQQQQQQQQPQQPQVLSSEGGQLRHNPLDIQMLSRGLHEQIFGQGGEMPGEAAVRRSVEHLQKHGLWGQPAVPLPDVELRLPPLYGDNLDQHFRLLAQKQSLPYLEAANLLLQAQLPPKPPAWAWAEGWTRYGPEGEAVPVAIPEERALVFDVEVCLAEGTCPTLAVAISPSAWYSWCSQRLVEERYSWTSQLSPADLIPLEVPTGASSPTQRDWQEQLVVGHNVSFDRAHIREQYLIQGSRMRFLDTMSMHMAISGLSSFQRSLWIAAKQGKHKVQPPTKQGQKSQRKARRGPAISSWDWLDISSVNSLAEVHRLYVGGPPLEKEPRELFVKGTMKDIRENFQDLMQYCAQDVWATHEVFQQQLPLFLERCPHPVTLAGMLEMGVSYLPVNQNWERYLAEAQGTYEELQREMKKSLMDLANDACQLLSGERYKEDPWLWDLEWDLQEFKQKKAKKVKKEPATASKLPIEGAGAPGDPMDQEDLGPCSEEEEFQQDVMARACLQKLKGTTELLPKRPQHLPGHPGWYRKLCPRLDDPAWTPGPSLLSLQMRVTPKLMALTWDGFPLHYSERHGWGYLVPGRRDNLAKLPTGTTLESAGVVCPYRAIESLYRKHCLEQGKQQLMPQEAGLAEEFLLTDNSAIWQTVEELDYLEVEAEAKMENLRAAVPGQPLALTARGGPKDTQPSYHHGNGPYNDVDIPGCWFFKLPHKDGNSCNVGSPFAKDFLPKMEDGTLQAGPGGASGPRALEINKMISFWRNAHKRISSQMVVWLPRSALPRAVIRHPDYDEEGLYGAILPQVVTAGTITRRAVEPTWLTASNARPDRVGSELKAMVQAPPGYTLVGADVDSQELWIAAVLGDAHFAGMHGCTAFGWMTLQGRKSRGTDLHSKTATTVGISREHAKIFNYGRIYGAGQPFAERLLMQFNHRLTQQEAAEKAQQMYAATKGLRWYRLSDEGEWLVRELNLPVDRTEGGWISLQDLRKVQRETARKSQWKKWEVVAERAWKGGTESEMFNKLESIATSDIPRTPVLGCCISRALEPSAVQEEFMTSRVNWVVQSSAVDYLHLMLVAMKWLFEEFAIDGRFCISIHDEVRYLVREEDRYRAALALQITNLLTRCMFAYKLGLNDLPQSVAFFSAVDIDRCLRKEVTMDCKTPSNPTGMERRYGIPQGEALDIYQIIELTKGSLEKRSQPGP
UniProt P11103: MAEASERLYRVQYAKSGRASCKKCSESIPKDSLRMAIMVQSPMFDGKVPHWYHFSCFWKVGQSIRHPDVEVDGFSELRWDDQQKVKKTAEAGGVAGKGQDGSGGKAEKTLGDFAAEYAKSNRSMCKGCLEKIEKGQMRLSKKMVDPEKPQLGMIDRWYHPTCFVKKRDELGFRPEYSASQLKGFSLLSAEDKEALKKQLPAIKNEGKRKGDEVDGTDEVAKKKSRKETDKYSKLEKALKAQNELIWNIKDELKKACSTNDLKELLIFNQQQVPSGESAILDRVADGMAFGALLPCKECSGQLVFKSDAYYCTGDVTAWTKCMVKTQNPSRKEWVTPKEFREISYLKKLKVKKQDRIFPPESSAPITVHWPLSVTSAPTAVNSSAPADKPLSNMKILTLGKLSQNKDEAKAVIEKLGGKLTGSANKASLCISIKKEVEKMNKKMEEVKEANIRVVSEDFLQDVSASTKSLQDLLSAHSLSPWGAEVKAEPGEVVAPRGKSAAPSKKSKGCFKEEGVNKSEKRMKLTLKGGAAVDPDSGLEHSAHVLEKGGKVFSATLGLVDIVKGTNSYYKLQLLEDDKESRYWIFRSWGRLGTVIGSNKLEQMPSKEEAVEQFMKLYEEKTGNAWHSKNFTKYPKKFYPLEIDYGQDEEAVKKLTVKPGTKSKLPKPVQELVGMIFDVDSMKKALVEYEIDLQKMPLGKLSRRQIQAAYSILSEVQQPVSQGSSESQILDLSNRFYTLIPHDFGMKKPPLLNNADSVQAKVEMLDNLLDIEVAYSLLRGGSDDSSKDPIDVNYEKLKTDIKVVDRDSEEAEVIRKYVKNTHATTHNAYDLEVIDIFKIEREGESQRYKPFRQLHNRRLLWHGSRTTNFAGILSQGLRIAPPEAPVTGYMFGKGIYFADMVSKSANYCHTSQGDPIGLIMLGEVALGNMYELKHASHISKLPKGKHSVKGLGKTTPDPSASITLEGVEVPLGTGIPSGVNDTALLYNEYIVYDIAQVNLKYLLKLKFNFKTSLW

Assay [1] addresses T1, DNA polymerase γ catalytic subunit (POLG), mouse (mouse (endogenous in heart)) (UniProt P54099).
T1 sequence: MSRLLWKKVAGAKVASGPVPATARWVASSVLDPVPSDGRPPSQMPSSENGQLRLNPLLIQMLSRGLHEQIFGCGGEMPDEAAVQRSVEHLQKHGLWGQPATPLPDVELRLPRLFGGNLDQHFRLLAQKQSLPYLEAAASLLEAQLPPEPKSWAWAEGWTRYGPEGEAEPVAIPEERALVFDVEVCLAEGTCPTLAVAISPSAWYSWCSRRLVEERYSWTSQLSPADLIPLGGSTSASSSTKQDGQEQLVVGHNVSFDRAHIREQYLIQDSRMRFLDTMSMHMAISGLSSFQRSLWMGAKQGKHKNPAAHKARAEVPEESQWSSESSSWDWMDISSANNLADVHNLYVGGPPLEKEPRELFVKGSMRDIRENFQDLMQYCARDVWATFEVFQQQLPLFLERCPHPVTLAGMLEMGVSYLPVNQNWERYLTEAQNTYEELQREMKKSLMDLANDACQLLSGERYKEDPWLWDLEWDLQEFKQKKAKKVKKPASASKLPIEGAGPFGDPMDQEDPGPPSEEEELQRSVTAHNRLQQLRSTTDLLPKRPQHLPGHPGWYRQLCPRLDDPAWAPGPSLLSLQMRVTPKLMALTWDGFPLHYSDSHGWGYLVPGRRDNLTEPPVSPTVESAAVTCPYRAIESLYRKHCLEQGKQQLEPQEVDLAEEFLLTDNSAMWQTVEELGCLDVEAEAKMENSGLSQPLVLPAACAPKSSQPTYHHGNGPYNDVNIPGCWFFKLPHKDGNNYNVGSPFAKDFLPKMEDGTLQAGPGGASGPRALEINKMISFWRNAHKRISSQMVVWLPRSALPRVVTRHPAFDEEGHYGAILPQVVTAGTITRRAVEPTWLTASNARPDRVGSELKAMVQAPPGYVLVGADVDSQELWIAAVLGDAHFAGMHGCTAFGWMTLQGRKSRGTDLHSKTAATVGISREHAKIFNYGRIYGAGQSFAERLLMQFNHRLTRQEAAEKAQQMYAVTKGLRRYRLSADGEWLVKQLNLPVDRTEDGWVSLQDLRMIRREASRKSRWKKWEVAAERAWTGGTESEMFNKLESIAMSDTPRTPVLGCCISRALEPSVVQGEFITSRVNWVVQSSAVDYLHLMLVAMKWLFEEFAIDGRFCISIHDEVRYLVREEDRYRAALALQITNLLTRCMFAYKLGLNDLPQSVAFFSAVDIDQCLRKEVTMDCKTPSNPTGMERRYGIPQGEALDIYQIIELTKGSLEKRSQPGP
The experiment in a line: co-IP; pooled cardiac mitochondria of normal and chronically T. cruzi infected (chagasic) WT mice; immunoprecipitation with anti-POLG antibody (20 μg, overnight, 4°C), Protein G agarose columns, elution in 0.2 M glycine pH 2.5; input, flow-through and POLG-binding fractions blotted for PARP1, Twinkle, SSBP1.

The target in assay [2] is Poly(ADP-ribose) polymerase 1 (PARP1), human (human (endogenous in HeLa)) (UniProt P09874). Nature of the assay: co-IP; HeLa cells infected with T. cruzi (1:5, 24 h), uninfected or treated with 50 μM H2O2; cross-IP/Western blot with antibodies against POLG and PARP1.
The target of assay [3] is DNA polymerase γ catalytic subunit (POLG), human (human (endogenous in HeLa)) (UniProt P54098). The description is as above.

Results are given in words; binding and its absence hold for the method and conditions named. In cells and extracts the contact can be indirect. Some binding calls cover weakened binding; strength is not graded here.

On to “Poly(ADP-ribose) polymerase 1 (PARP1), mouse (from UniProt P11103 1-1013)”, for which the binding result in assay [1] is recorded as “binds”.

As for “DNA polymerase γ catalytic subunit (POLG), human (from UniProt P54098 1-1239)”, the binding entry in assay [2] is “binds”.

In the case of “Poly(ADP-ribose) polymerase 1 (PARP1), human (from UniProt P09874 1-1014)”, the binding entry in assay [3] was “binds”.
